Measurements reported in paper PMC6210257.
No constants are given. Whether binding was seen depends on the method and setting. Binding seen in cells or lysates may run through a third protein. Some binding calls cover weakened binding; strength is not graded here.

Sequences of proteins named here, by UniProt entry; tags and fusion partners are left off.
UniProt P67809: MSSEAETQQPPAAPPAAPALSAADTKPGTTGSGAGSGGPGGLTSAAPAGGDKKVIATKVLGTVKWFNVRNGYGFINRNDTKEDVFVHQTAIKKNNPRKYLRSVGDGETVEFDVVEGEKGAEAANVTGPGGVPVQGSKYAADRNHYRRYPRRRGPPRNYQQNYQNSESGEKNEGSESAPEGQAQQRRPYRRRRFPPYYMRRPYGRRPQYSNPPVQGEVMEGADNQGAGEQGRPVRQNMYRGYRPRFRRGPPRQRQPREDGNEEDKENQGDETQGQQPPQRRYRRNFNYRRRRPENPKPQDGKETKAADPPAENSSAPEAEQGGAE
UniProt P11940: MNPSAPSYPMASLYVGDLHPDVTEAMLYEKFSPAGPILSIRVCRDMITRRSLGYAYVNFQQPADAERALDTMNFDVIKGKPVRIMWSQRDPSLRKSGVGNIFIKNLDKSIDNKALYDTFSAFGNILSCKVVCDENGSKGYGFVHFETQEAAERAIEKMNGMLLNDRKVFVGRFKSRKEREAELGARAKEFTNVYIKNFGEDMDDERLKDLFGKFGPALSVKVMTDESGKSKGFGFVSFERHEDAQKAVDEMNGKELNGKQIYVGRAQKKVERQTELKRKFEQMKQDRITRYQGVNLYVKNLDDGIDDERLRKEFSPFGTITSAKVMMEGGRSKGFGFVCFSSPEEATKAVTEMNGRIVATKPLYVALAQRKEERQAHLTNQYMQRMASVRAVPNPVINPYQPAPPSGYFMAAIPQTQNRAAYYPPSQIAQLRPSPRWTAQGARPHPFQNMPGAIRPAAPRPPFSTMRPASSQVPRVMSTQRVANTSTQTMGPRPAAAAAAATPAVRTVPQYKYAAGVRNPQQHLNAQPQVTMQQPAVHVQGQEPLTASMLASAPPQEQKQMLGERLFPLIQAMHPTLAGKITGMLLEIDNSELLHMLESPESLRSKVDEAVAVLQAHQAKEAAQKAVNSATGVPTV

How the values were obtained:
[1] = target: Y-box binding protein 1 (YB-1) (human (endogenous in HEK293T)) (UniProt P67809); assay: co-IP; total protein extracts of HEK293T cells treated with 250 uM sodium arsenite for 30 min; antibody overnight at 4 °C, Dynabeads Protein G 4 h at 4 °C; results and legend: YB-1 precipitated, PABP1 blotted (methods: anti-PABP1 precipitation, anti-YB-1 blot)
[2] = target: Y-box binding protein 1 (YB-1) (human (endogenous in HEK293T)) (UniProt P67809); assay: co-IP; total protein extracts of untreated HEK293T cells (no sodium arsenite); antibody overnight at 4 °C, Dynabeads Protein G 4 h at 4 °C; results and legend: YB-1 precipitated, PABP1 blotted (methods: anti-PABP1 precipitation, anti-YB-1 blot)

In the case of “Poly(A)-binding protein 1 (PABP1) (from UniProt P11940 1-636)”, the binding [1] is reported as “binds” and the binding [2] is reported as “no binding (condition: cells left untreated (no Na Ars))”.
